Measurements reported in US8841304B2, “Pyrrolopyridines as kinase inhibitors” (Array Biopharma, Inc., priority 2008, dated 2014).
pIC50: −log10 of the molar value. Where a name gives a salt, the structure may show the parent alone. Some of these results come from one statement about several compounds together.

Target: T1, human CHK1 kinase domain, amino acids 1 to 273 (Homo sapiens, UniProt O14757)
T1 construct: human CHK1 kinase domain, amino acids 1 to 273; His10 (C); made in house
T1 sequence (O14757 1-273): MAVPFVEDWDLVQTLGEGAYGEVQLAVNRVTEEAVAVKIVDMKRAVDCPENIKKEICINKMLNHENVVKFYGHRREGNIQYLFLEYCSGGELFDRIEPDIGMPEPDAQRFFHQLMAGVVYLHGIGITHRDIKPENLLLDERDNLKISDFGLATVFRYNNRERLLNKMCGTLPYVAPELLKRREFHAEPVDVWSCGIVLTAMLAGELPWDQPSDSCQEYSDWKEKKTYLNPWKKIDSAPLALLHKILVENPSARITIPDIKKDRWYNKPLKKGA
Test: CHK1 Enzymatic Assay
Type: biochemical
Conditions: 0.5 nM CHK1 enzyme, 2 μM S/T 11 peptide substrate, room temperature, four parameter fit

Row | SMILES | pIC50
1 | NCC(=O)N1CCN(c2ccnc3[nH]cc(NC(=O)c4cccnc4)c23)CC1 [Example 57, N-(4-(4-(2-aminoacetyl)piperazin-1-yl)-1H-pyrrolo[2,3-b]pyridin-3-yl)nicotinamide] | > 4.98
2 | CC(C)[C@@H](N)C(=O)N1CCN(c2ccnc3[nH]cc(NC(=O)c4cccnc4)c23)CC1 [Example 58, (R)—N-(4-(4-(2-amino-3-methylbutanoyl)piperazin-1-yl)-1H-pyrrolo[2,3-b]pyridin-3-yl)nicotinamide] | > 4.98
3 | NCCC(=O)N1CCN(c2ccnc3[nH]cc(NC(=O)c4cccnc4)c23)CC1 [Example 59, N-(4-(4-(3-aminopropanoyl)piperazin-1-yl)-1H-pyrrolo[2,3-b]pyridin-3-yl)nicotinamide] | > 4.98
4 | NCC(=O)N1CCN(c2c(Br)cnc3[nH]cc(NC(=O)c4cccnc4)c23)CC1 [Example 61, N-(4-(4-(2-aminoacetyl)piperazin-1-yl)-5-bromo-1H-pyrrolo[2,3-b]pyridin-3-yl)nicotinamide] | > 4.98
5 | NCCC(=O)N1CCN(c2c(Br)cnc3[nH]cc(NC(=O)c4cccnc4)c23)CC1 [Example 62, N-(4-(4-(3-aminopropanoyl)piperazin-1-yl)-5-bromo-1H-pyrrolo[2,3-b]pyridin-3-yl)nicotinamide] | > 4.98
6 | CC(C)NCCC(=O)N1CCN(c2c(Br)cnc3[nH]cc(NC(=O)c4cccnc4)c23)CC1 [Example 63, N-(5-bromo-4-(4-(3-(isopropylamino)propanoyl)piperazin-1-yl)-1H-pyrrolo[2,3-b]pyridin-3-yl)nicotinamide] | > 4.98
7 | NCC(=O)N1CCN(c2c(-c3ccccc3)cnc3[nH]cc(NC(=O)c4cccnc4)c23)CC1 [Example 64, N-(4-(4-(2-aminoacetyl)piperazin-1-yl)-5-phenyl-1H-pyrrolo[2,3-b]pyridin-3-yl)nicotinamide] | > 4.98
8 | NCCC(=O)N1CCN(c2c(-c3ccccc3)cnc3[nH]cc(NC(=O)c4cccnc4)c23)CC1 [Example 65, N-(4-(4-(3-aminopropanoyl)piperazin-1-yl)-5-phenyl-1H-pyrrolo[2,3-b]pyridin-3-yl)nicotinamide] | > 4.98
9 | CC(C)NCCC(=O)N1CCN(c2c(-c3ccccc3)cnc3[nH]cc(NC(=O)c4cccnc4)c23)CC1 [Example 66, N-(4-(4-(3-(isopropylamino)propanoyl)piperazin-1-yl)-5-phenyl-1H-pyrrolo[2,3-b]pyridin-3-yl)nicotinamide] | > 4.98
10 | CN(C)CC(=O)N1CCN(c2c(Br)cnc3[nH]cc(NC(=O)c4cccnc4)c23)CC1 [Example 67, N-(5-bromo-4-(4-(2-(dimethylamino)acetyl)piperazin-1-yl)-1H-pyrrolo[2,3-b]pyridin-3-yl)-nicotinamide hydrochloride] | > 4.98
11 | CNCC(=O)N1CCN(c2c(Br)cnc3[nH]cc(NC(=O)c4cccnc4)c23)CC1 [Example 68, N-(5-bromo-4-(4-(2-(methylamino)acetyl)piperazin-1-yl)-1H-pyrrolo[2,3-b]pyridin-3-yl)-nicotinamide hydrochloride] | > 4.98
12 | O=C(Nc1c[nH]c2ncc(Br)c(N3CCN(C(=O)C[C@@H]4CCCN4)CC3)c12)c1cccnc1 [Example 69, (S)-N-(5-bromo-4-(4-(2-(pyrrolidin-2-yl)acetyl)piperazin-1-yl)-1H-pyrrolo[2,3-b]pyridin-3-yl)-nicotinamide hydrochloride] | > 4.98
13 | N[C@H](Cc1ccc(Cl)cc1)C(=O)N1CCN(c2c(Br)cnc3[nH]cc(NC(=O)CO)c23)CC1 [Example 70, (R)-N-(4-(4-(2-amino-3-(4-chlorophenyl)propanoyl)piperazin-1-yl)-5-bromo-1H-pyrrolo[2,3-b]pyridin-3-yl)-2-hydroxyacetamide hydrochloride] | > 4.98
14 | O=C(CO)Nc1c[nH]c2ncc(Br)c(N3CCN(C(=O)C[C@@H]4CCCN4)CC3)c12 [Example 71, (S)-N-(5-bromo-4-(4-(2-(pyrrolidin-2-yl)acetyl)piperazin-1-yl)-1H-pyrrolo[2,3-b]pyridin-3-yl)-2-hydroxyacetamide hydrochloride] | > 4.98
15 | O=C(Nc1c[nH]c2ncc(Br)c(N3CCN(C(=O)C[C@@H]4CCCN4)CC3)c12)c1cn[nH]c1 [Example 72, (S)-N-(5-bromo-4-(4-(2-(pyrrolidin-2-yl)acetyl)piperazin-1-yl)-1H-pyrrolo[2,3-b]pyridin-3-yl)-1H-pyrazole-4-carboxamide hydrochloride] | > 4.98
16 | O=C(Nc1c[nH]c2ncc(Br)c(N3CCN(C(=O)C[C@@H]4CCCN4)CC3)c12)c1cncc(Cl)c1 [Example 73, (S)-N-(5-bromo-4-(4-(2-(pyrrolidin-2-yl)acetyl)piperazin-1-yl)-1H-pyrrolo[2,3-b]pyridin-3-yl)-5-chloronicotinamide hydrochloride] | > 4.98
17 | Cc1cncc(C(=O)Nc2c[nH]c3ncc(Br)c(N4CCN(C(=O)C[C@@H]5CCCN5)CC4)c23)c1 [Example 74, (S)-N-(5-bromo-4-(4-(2-(pyrrolidin-2-yl)acetyl)piperazin-1-yl)-1H-pyrrolo[2,3-b]pyridin-3-yl)-5-methylnicotinamide hydrochloride] | > 4.98
